Results are given in words; binding and its absence hold for the method and conditions named. Some results given as binding are weak or reduced against the parent protein; the word gives no strength. For some assays here: Tags and fused reporters may be left off the sequences shown.
Legend:
[1] = molecular target: T1, full-length (wild-type) MSR1 expressed from p-MSR1-mCherry2 in HEK293 cells (human) (UniProt P21757); experiment: flow cytometry on cells; uptake of HFt-AF488 (50 μg/ml) within 30 min at 37 °C by HEK293 (or CHO-K1) cells 24 h after transfection with an MSR1 plasmid or a control plasmid; confocal microscopy beside it; only the binder purified
T1 sequence: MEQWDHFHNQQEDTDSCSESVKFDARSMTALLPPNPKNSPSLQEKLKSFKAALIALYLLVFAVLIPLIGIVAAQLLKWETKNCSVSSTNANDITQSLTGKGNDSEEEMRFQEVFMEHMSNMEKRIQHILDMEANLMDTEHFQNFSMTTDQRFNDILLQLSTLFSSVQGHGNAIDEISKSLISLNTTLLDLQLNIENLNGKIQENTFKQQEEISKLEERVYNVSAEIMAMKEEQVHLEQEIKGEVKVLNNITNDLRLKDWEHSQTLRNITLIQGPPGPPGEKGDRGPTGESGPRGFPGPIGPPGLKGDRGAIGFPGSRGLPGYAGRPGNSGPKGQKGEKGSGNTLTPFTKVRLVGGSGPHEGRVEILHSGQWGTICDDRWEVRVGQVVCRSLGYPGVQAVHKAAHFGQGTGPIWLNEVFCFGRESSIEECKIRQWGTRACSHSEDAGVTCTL

[2] = molecular target: T2, human MSR1 expressed from the CD204/MSR1 cDNA ORF clone, N-His tag expression plasmid, in HEK293 and CHO-K1 cells (human) (UniProt P21757); experiment: as above
T2 sequence: T1 sequence

binding [1]: binds
binding [2]: binds
Substance: human heavy chain ferritin conjugated to Alexa Fluor 488 (HFt-AF488) (from UniProt P02794 1-183)
